From ChEMBL document CHEMBL1155626, “Metabolites of Colletotrichum gloeosporioides, an endophytic fungus in Artemisia mongolica” (2000)
Values after ≈ are worked out from the molar mass of the structure shown.

System: Staphylococcus aureus
Assay: Antimicrobial activity against Staphylococcus aureus after 48 hrs by paper disk assay
Format: functional

MIC: 0.5 µg/mL (≈ 1.43 µM)
Structure (SMILES): CC1(C)S[C@@H]2[C@H](NC(=O)[C@H](N)c3ccccc3)C(=O)N2[C@H]1C(=O)O [AMPICILLIN]
